No constants are given. Whether binding was seen depends on the method and setting. For part of these data: A result given as binding can be weak or reduced; the word gives no strength.
Legend:
Assay in all cases: two-hybrid; Psk1 constructs as bait (pGBT8), Mip1 constructs as prey (pGAD GH); budding yeast Y2HGold; ADE2 and HIS3 reporters (adenine and histidine auxotrophic markers)
[1] = biological target: Psk1 D10A, two-hybrid bait (S. pombe) (UniProt Q12706)
[2] = biological target: Psk1 D7A, two-hybrid bait (S. pombe) (UniProt Q12706)
[3] = biological target: Psk1 E8A, two-hybrid bait (S. pombe) (UniProt Q12706)
[4] = biological target: Psk1 F4A, two-hybrid bait (S. pombe) (UniProt Q12706)
[5] = biological target: Psk1 F6A, two-hybrid bait (S. pombe) (UniProt Q12706)
[6] = biological target: Psk1 H9A, two-hybrid bait (S. pombe) (UniProt Q12706)
[7] = biological target: Psk1 M5A, two-hybrid bait (S. pombe) (UniProt Q12706)
[8] = biological target: Psk1 P2A, two-hybrid bait (S. pombe) (UniProt Q12706)
[9] = biological target: Psk1 V3A, two-hybrid bait (S. pombe) (UniProt Q12706)

The chains behind the UniProt entries cited, without tags or fusion partners. Where a name states a change or a piece, a line headed by the entry shows the natural chain unless it says otherwise.
UniProt Q12706: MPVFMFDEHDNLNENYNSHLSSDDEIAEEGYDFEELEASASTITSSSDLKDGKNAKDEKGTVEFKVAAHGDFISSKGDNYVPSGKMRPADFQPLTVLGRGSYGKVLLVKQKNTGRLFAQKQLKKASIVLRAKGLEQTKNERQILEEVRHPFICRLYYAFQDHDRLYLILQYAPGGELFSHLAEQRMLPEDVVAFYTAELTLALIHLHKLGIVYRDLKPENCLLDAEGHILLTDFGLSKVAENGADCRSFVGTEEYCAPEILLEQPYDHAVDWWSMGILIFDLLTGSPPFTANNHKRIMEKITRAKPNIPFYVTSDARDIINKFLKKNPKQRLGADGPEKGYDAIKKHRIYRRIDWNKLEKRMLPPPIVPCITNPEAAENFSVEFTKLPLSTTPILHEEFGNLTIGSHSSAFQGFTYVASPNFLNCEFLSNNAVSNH
UniProt P87141: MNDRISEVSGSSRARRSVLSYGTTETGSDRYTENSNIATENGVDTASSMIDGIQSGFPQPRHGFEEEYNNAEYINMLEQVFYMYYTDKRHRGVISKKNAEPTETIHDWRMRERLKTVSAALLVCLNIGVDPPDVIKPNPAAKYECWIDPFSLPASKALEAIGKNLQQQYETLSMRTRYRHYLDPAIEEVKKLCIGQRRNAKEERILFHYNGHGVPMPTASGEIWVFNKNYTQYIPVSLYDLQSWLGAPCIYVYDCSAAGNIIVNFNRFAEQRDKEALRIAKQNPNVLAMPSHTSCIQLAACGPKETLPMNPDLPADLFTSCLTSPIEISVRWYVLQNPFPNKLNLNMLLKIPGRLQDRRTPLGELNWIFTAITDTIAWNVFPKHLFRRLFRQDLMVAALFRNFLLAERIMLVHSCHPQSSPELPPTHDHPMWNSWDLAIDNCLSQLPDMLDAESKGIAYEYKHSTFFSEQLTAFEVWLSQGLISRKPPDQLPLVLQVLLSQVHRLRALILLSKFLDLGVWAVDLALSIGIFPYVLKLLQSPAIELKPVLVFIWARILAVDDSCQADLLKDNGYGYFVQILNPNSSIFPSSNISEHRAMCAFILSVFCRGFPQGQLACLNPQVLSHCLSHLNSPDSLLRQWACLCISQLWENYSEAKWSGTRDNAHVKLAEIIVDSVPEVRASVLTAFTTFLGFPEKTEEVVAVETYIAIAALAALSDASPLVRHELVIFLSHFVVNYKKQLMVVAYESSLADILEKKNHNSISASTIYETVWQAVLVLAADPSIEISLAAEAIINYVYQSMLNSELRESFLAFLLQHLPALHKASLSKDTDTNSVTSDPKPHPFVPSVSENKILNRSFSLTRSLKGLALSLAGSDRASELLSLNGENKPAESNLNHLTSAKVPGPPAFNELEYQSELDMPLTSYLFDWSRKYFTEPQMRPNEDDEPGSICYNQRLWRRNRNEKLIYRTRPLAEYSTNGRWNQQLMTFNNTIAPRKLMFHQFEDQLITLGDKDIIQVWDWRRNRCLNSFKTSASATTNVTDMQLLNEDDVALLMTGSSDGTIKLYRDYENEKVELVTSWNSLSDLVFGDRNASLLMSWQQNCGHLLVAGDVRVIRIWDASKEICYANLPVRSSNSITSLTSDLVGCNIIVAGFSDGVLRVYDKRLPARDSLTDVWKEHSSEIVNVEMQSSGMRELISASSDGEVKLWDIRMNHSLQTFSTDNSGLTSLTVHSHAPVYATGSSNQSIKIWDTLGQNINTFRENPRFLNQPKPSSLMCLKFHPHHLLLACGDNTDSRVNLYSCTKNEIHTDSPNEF

In the case of “Mip1 (fission yeast RAPTOR ortholog), two-hybrid prey (from UniProt P87141 1-1313)”, the binding [1] is reported as “binds”, the binding [2] is reported as “no binding” and the binding [3] is reported as “binds”. The binding [4] was “no binding”, the binding [5] was “no binding” and the binding [6] was “binds”. The binding [7] was “binds”, the binding [8] was “binds” and the binding [9] was “no binding”.
